Experimental data as given in the supplement of paper PMC10849652.
The list shows a part of the results.

Protein sequences, listed by entry. Tags and fused reporters are not part of them. Lines headed by an entry give the natural chain unless they say otherwise; changes in a name come on top.
UniProt O14497, whole entry, looked up: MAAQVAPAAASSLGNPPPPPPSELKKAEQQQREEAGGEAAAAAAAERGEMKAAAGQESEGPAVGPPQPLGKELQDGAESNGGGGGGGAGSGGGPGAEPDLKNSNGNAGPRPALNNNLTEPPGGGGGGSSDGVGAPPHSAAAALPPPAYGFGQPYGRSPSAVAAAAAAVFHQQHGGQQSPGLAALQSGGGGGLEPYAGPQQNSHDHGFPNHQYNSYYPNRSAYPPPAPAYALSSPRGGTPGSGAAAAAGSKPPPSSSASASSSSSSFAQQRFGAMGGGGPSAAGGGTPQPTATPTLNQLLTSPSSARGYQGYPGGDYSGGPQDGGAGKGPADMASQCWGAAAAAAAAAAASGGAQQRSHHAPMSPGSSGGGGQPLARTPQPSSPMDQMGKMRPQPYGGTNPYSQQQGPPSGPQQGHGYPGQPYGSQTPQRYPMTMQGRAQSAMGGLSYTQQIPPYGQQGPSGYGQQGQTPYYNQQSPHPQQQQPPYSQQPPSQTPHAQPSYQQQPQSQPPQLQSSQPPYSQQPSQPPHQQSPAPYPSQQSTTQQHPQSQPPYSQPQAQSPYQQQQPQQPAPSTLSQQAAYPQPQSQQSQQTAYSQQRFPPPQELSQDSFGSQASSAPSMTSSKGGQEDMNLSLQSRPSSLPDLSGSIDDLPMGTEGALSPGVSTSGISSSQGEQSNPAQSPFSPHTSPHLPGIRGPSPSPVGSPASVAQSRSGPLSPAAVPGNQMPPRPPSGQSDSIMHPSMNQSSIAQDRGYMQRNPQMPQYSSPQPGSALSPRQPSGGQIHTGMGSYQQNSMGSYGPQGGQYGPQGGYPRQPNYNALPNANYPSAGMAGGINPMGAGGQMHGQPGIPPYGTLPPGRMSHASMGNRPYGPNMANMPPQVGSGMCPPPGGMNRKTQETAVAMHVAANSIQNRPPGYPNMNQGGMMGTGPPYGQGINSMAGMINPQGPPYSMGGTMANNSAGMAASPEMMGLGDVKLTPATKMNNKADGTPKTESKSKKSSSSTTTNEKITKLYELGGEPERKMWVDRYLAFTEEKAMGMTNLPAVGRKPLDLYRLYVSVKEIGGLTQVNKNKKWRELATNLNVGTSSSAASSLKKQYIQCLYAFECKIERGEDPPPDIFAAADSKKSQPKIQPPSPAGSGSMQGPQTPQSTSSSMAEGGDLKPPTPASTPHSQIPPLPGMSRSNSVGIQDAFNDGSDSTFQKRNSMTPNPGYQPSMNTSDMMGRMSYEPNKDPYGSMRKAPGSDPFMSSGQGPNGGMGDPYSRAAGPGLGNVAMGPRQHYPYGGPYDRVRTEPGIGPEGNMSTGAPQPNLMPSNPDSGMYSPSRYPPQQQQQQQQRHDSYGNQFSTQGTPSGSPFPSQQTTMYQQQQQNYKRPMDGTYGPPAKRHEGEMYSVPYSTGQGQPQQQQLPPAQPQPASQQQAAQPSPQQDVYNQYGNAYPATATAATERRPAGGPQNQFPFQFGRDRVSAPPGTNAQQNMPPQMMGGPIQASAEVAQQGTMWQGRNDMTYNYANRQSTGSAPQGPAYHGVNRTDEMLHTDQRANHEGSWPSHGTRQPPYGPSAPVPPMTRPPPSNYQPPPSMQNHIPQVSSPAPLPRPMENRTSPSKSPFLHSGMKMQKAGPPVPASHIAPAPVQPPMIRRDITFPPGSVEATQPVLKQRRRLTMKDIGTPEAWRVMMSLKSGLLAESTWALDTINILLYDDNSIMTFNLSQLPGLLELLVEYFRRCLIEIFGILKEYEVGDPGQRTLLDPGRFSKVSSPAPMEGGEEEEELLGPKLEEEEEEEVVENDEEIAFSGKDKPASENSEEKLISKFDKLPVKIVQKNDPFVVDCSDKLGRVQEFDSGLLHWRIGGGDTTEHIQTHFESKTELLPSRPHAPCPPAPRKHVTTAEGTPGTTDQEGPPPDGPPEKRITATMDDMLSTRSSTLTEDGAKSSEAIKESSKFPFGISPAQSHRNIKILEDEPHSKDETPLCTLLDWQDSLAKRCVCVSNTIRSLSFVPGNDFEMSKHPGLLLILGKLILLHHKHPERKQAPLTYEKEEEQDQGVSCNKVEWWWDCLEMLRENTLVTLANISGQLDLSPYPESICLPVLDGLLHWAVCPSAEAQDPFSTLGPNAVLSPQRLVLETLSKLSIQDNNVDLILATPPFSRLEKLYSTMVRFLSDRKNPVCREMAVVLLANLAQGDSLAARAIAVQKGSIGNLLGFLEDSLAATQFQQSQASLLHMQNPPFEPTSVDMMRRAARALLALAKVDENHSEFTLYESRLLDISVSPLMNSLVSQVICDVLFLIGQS
UniProt Q8N8R7: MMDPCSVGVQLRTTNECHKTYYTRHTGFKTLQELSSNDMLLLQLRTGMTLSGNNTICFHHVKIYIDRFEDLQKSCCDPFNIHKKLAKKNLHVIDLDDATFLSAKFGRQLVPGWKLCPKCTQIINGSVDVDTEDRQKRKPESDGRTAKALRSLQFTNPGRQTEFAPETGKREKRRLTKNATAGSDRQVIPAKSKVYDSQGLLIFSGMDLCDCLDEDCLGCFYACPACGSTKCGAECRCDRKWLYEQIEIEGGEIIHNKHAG
UniProt Q9HC16: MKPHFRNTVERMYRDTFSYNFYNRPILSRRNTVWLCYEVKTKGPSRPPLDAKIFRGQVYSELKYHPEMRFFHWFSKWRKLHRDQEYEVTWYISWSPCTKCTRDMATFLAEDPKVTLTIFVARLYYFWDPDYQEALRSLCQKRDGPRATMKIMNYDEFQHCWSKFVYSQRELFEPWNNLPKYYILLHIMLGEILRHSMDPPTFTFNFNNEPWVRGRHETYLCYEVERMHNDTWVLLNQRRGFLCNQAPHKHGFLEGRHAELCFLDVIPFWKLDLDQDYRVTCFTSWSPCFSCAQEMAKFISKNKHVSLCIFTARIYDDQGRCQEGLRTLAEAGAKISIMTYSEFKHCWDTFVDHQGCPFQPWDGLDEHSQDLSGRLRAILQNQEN
UniProt P61204: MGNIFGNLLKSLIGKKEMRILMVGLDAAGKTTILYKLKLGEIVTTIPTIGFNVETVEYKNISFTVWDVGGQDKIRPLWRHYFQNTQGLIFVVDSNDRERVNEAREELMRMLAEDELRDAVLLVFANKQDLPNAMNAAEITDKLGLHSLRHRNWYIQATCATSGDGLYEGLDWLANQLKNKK
UniProt P53367: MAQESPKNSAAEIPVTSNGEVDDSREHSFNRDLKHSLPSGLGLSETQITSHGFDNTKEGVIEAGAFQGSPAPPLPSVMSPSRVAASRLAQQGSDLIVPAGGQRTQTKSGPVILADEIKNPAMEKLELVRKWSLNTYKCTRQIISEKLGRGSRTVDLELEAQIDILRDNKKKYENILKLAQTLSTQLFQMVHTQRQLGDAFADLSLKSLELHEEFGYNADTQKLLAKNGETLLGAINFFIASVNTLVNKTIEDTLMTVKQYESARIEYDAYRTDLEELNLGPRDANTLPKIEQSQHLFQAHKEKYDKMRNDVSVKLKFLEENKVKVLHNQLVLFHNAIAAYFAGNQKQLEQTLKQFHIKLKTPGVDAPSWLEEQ
UniProt Q96GX9: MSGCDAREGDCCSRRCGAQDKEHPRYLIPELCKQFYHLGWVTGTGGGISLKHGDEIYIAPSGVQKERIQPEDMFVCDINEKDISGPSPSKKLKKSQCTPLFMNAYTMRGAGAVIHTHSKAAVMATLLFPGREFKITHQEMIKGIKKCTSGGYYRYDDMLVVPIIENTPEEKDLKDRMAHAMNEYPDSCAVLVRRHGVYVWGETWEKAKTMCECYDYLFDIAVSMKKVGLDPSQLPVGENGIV
UniProt P10398: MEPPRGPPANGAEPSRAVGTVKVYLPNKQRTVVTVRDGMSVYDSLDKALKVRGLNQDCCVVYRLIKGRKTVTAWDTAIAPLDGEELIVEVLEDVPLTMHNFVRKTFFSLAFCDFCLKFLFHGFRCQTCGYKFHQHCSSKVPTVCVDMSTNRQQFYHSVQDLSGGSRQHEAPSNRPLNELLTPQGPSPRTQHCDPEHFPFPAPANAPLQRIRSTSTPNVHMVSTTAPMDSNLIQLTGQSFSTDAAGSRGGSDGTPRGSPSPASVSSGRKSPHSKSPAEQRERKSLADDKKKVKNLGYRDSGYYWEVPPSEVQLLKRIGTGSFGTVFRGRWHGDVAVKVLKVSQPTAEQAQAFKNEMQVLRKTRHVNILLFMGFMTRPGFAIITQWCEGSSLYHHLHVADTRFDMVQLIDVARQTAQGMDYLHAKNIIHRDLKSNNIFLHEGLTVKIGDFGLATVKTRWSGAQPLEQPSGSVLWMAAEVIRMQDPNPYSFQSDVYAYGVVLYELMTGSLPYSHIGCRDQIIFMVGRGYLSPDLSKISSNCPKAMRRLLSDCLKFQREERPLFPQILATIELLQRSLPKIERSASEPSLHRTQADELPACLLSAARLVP
UniProt P42331: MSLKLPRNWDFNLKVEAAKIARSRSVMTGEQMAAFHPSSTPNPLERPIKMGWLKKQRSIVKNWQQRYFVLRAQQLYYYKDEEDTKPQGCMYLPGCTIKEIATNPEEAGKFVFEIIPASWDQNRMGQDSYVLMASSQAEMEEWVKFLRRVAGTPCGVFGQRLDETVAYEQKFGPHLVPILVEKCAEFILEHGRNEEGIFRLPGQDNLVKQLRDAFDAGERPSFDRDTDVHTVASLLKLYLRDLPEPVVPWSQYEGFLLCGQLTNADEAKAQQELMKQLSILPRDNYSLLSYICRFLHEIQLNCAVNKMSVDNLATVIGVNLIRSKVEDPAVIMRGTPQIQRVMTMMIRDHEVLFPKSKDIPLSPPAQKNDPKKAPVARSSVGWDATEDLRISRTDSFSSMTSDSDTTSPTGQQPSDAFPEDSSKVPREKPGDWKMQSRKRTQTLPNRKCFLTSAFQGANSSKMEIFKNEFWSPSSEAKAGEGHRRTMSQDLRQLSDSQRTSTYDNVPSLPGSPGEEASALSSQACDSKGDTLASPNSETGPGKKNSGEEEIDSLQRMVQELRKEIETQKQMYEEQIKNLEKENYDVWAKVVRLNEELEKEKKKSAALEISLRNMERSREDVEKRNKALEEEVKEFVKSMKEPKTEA
UniProt Q07960: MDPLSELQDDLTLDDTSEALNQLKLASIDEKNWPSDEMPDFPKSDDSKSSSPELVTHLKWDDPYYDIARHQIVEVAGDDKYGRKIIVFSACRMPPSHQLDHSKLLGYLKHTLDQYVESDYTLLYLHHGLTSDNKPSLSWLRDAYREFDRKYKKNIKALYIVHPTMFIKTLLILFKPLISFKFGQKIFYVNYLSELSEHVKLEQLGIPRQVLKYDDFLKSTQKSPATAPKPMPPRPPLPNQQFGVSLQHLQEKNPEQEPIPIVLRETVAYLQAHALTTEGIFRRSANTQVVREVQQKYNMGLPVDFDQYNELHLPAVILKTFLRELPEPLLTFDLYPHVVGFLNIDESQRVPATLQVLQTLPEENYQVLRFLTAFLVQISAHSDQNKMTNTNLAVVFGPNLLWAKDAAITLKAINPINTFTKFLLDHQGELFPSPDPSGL
UniProt Q06481, whole entry, looked up: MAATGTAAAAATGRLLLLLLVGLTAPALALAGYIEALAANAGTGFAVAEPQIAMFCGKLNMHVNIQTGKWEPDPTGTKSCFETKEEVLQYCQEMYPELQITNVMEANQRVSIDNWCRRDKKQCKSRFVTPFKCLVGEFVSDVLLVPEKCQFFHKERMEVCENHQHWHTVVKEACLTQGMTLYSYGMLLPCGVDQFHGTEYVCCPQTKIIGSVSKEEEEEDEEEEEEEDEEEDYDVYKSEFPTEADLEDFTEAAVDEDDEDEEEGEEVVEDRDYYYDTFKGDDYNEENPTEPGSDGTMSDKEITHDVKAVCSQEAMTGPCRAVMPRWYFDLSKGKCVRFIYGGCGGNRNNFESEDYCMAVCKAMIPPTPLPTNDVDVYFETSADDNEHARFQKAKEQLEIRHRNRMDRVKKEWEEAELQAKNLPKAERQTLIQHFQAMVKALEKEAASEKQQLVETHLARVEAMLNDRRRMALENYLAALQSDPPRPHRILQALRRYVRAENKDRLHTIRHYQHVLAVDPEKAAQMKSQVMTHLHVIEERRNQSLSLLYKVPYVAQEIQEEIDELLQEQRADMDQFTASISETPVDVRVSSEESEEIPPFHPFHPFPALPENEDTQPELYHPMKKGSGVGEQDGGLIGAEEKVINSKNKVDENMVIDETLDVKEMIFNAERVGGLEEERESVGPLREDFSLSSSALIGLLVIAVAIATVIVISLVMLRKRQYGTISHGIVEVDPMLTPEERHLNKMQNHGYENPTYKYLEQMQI
UniProt Q9NWB6: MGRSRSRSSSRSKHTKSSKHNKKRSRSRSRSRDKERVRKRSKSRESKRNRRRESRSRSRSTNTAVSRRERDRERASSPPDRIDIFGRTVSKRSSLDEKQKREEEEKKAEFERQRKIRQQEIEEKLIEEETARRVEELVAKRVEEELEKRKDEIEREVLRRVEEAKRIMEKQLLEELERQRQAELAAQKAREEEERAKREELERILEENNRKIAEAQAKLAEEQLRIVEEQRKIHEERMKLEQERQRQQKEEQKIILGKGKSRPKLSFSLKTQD

Columns and labels:
Test in all cases: log2 fold change, soluble protein after heating vs DMSO (PISA); higher = thermal stabilisation; K562 lysate, 10 uM; active = over 0.2 and 3.5 SD of the protein, either way, in both replicates (recomputed)
[1] = compound: C1=CC=C(C=C1)[C@H](COC2=CC3=C(C=C2)NC(=O)N3)NC(=O)C4=CC=CN(C4=O)CC5=CC(=C(C=C5)F)F
In short: (§1)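 K562 pellets were dounce-homogenised in PBS pH 7.4 containing 1 mM MgCl2, and the crude extract, at 1 mg/mL protein, was exposed to 10 μM compound for 30 min. Aliquots were heated for 3 min across 48°C-58°C, pooled, brought to 0.5% NP-40 at 4°C and spun at 21,000xg for 90 min, with the supernatant taken as soluble protein. TMTpro 16plex LC-MS/MS with equalised channel sums quantified that protein. Values are log-two fold changes in thermal stability relative to solvent controls, taken from duplicates.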

[2] = compound: CC1=C(SC2=C1C(=N[C@H](C3=NN=C(N32)C)CC(=O)N)C4=CC=C(C=C4)Cl)C
In short: as §1

[3] = compound: CC1=C2C(=CC=C1)N=C(N(C2=O)C3=CC=CC=C3C)CN4C=NC5=C(N=CN=C54)N
In short: as §1

[4] = compound: Cc1sc2c(c1C)C(c1ccc(Cl)cc1)=N[C@@H](CC(=O)OC(C)(C)C)c1nnc(C)n1-2
In short: as §1

[5] = compound: c1ccc([C@@H]2C[C@H]2NC2CCNCC2)cc1
In short: as §1

Measured: log2 fold change

ARID1A (UniProt O14497)
inactive: [1] -0.019 | [2] 0.024 | [3] -0.004 | [4] 0.026 | [5] 0

APAF1 (UniProt O14727)
inactive: [1] -0.013 | [2] 0.004 | [3] 0.022 | [4] 0.012 | [5] 0.02

ARFGAP1 (UniProt Q8N6T3)
inactive: [1] 0.037 | [2] -0.091 | [3] 0.149 | [4] -0.081 | [5] -0.127

ARL6IP4 isoform 7 (UniProt Q66PJ3)
inactive: [1] 0.159 | [2] -0.304

ARL14EP (UniProt Q8N8R7)
inactive: [1] 0 | [2] 0.067 | [3] -0.03 | [4] -0.006 | [5] 0.109

ARHGAP27 (UniProt Q6ZUM4)
inactive: [1] -0.114 | [2] -0.101 | [3] 0.063

APOBEC3G (UniProt Q9HC16)
inactive: [1] -0.088 | [2] -0.195 | [3] -0.051 | [4] -0.055 | [5] 0.023

ARL6IP4 (UniProt Q66PJ3)
inactive: [1] 0.051 | [2] 0.046 | [3] -0.059 | [4] -0.059 | [5] 0.084

ARFGEF1 (UniProt Q9Y6D6)
inactive: [1] -0.004 | [2] 0.027 | [3] 0.009 | [4] 0.006 | [5] 0.018

ARID3A (UniProt Q99856)
inactive: [1] -0.034 | [2] 0.01 | [3] -0.021 | [4] 0.034 | [5] 0.059

ARHGEF6 (UniProt Q15052)
inactive: [1] 0.005 | [2] -0.066 | [3] -0.011 | [4] 0.02 | [5] 0.051

ARHGEF18 (UniProt Q6ZSZ5)
inactive: [1] -0.005 | [2] -0.004 | [3] 0.018 | [4] -0.065 | [5] -0.016

ARL6IP1 (UniProt Q15041)
inactive: [1] 0 | [2] -0.003 | [3] -0.005 | [4] -0.05 | [5] -0.016

ARF3 (UniProt P61204)
inactive: [1] 0.029 | [2] -0.018 | [3] -0.012 | [4] 0.045 | [5] -0.066

ARHGDIB (UniProt P52566)
inactive: [1] 0.016 | [2] 0.023 | [3] 0.004 | [4] -0.092 | [5] 0.045

ARFIP1 isoform 2 (UniProt P53367)
inactive: [1] -0.028 | [2] -0.07 | [3] 0.043 | [4] -0.094 | [5] 0.073

ARID4B (UniProt Q4LE39)
inactive: [1] -0.009 | [2] -0.019 | [3] -0.003 | [4] -0.021 | [5] 0.035

APOBEC3D (UniProt Q96AK3)
inactive: [1] 0.023 | [2] 0.066 | [3] 0.067 | [4] 0.056 | [5] 0.085

ARAP1 (UniProt Q96P48)
inactive: [1] 0.022 | [2] -0.008 | [3] 0.048 | [4] 0.013 | [5] -0.015

ARIH2 (UniProt O95376)
inactive: [1] 0.001 | [2] -0.001 | [3] 0.039 | [4] -0.001 | [5] -0.076

ARHGEF10 (UniProt O15013)
inactive: [1] 0.078 | [2] 0.05 | [3] 0.027 | [4] -0.133 | [5] -0.198

ARPC4 isoform 3 (UniProt P59998)
inactive: [1] -0.022 | [2] -0.018 | [3] 0 | [4] 0.003 | [5] -0.021

ARMC10 (UniProt Q8N2F6)
inactive: [1] -0.022 | [2] 0.074 | [3] 0.068 | [4] 0.02 | [5] 0.008

ARPC1B (UniProt O15143)
inactive: [1] 0.054 | [2] -0.028 | [3] 0.03 | [4] 0.035 | [5] -0.016

AP5Z1 (UniProt O43299)
inactive: [1] 0.044 | [2] 0.027 | [3] 0.093 | [4] -0.151 | [5] -0.058

ARL3 (UniProt P36405)
inactive: [1] -0.003 | [2] 0.004 | [3] -0.01 | [4] 0.004 | [5] 0.006

ASAP1 isoform 2 (UniProt Q9ULH1)
inactive: [1] 0.03 | [2] -0.001 | [3] 0.006 | [4] -0.046 | [5] 0.028

ARPC5L (UniProt Q9BPX5)
inactive: [1] 0.076 | [2] -0.079 | [3] 0.052 | [4] -0.012 | [5] -0.035

ARHGAP5 (UniProt Q13017)
inactive: [1] 0 | [2] 0.01 | [3] 0.016 | [4] -0.03 | [5] -0.033

APC (UniProt P25054)
inactive: [1] -0.019 | [2] 0.053 | [3] 0.087 | [4] -0.016 | [5] 0.111

APLF (UniProt Q8IW19)
inactive: [1] -0.031 | [2] 0.122 | [3] -0.028

ARID1B isoform 3 (UniProt Q8NFD5)
inactive: [1] 0.015 | [2] 0.008 | [3] 0.004 | [4] 0.061 | [5] 0.063

APOH (UniProt P02749)
inactive: [1] -0.068 | [2] 0.014

ARRB1 isoform 2 (UniProt P49407)
inactive: [1] 0.054 | [2] 0.1 | [3] 0.043 | [4] -0.015

ARSB (UniProt P15848)
inactive: [1] 0.163 | [2] 0.102 | [3] 0.006 | [4] 0.003 | [5] 0.023

ARHGAP19 isoform 2 (UniProt Q14CB8)
inactive: [1] 0.071 | [2] -0.259 | [3] 0.047 | [4] -0.065

ARL8A (UniProt Q96BM9)
inactive: [1] 0.038 | [2] -0.02 | [3] -0.157 | [4] 0.093 | [5] 0.1

APIP (UniProt Q96GX9)
inactive: [1] -0.025 | [2] -0.034 | [3] 0.052 | [4] -0.012 | [5] -0.196

ARPC3 (UniProt O15145)
inactive: [1] 0.023 | [2] -0.032 | [3] -0.058 | [4] 0.03 | [5] 0.084

ARAF (UniProt P10398)
inactive: [1] 0.012 | [2] -0.002 | [3] -0.078 | [4] 0 | [5] 0.002

ARL1 (UniProt P40616)
inactive: [1] 0.094 | [2] 0.023 | [3] 0.051 | [4] -0.026 | [5] 0.026

ARFIP1 (UniProt P53367)
inactive: [1] -0.029 | [2] 0.006 | [3] -0.002 | [4] -0.064 | [5] -0.01

ARHGEF1 (UniProt M0QZR4)
inactive: [1] -0.046 | [2] 0.006 | [3] -0.017 | [4] -0.017 | [5] 0.004

ARHGAP25 isoform 4 (UniProt P42331)
inactive: [1] 0.013 | [2] 0.016 | [3] 0.012 | [4] -0.046 | [5] 0.035

APOL2 (UniProt J3KQL8)
inactive: [1] -0.062 | [2] -0.021 | [3] 0.102 | [4] 0.038 | [5] 0.085

ARF4 (UniProt P18085)
inactive: [1] 0.003 | [2] 0.045 | [3] 0.038 | [4] -0.002 | [5] 0.017

ARHGAP1 (UniProt Q07960)
inactive: [1] 0.052 | [2] 0.02 | [3] -0.008 | [4] 0.003 | [5] -0.017

APOBR (UniProt Q0VD83)
inactive: [1] -0.041 | [2] 0.016 | [3] -0.039 | [4] -0.047 | [5] -0.015

APLP2 (UniProt Q06481)
inactive: [1] 0.017 | [2] 0.042 | [3] 0.018 | [4] -0.043 | [5] -0.02

AQR (UniProt O60306)
inactive: [1] 0.014 | [2] -0.014 | [3] -0.026 | [4] 0.01 | [5] 0.04

ARF5 (UniProt P84085)
inactive: [1] 0.05 | [2] -0.04 | [3] 0.01 | [4] 0.017 | [5] -0.056

ARGLU1 (UniProt Q9NWB6)
inactive: [1] 0.049 | [2] 0.009 | [3] 0.036 | [4] -0.026 | [5] 0.074

APEH (UniProt P13798)
inactive: [1] 0.032 | [2] 0.024 | [3] -0.021 | [4] -0.007 | [5] 0.02

ARHGAP35 (UniProt Q9NRY4)
inactive: [1] -0.028 | [2] 0.004 | [3] -0.015 | [4] -0.009 | [5] -0.01

ARID2 (UniProt Q68CP9)
inactive: [1] 0.077 | [2] -0.09 | [3] -0.007 | [4] 0 | [5] 0.485
